The other results are listed elsewhere or left out.
Experiments:
Experiment in all cases: log2 fold change, soluble protein after heating vs DMSO (PISA); higher = thermal stabilisation; K562 cells, 10 uM, 30 min; active = over 0.2 and 3.5 SD of the protein, either way, in both replicates (recomputed)
[1] = compound: NC(=O)Nc1cc(-c2cccc(F)c2)sc1C(=O)N[C@H]1CCCNC1
How it was run: (§1)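 Thermal stability values are relative to control samples and come from duplicates. They are expressed as log2 fold changes. For measurement, K562 cells (2×10^6 cells/mL) received 10 μM compound for 30 min, and aliquots were heated for 3 min over 48°C-58°C, pooled, and extracted at 4°C in PBS with 0.5% NP-40. Soluble protein, the supernatant after 21,000xg for 90 min, was quantified by TMTpro 16plex LC-MS/MS with equalised channel sums.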

Protein sequences, listed by entry. Tags and fused reporters are not part of them. Lines headed by an entry give the natural chain unless they say otherwise; changes in a name come on top.
UniProt Q9BXW9: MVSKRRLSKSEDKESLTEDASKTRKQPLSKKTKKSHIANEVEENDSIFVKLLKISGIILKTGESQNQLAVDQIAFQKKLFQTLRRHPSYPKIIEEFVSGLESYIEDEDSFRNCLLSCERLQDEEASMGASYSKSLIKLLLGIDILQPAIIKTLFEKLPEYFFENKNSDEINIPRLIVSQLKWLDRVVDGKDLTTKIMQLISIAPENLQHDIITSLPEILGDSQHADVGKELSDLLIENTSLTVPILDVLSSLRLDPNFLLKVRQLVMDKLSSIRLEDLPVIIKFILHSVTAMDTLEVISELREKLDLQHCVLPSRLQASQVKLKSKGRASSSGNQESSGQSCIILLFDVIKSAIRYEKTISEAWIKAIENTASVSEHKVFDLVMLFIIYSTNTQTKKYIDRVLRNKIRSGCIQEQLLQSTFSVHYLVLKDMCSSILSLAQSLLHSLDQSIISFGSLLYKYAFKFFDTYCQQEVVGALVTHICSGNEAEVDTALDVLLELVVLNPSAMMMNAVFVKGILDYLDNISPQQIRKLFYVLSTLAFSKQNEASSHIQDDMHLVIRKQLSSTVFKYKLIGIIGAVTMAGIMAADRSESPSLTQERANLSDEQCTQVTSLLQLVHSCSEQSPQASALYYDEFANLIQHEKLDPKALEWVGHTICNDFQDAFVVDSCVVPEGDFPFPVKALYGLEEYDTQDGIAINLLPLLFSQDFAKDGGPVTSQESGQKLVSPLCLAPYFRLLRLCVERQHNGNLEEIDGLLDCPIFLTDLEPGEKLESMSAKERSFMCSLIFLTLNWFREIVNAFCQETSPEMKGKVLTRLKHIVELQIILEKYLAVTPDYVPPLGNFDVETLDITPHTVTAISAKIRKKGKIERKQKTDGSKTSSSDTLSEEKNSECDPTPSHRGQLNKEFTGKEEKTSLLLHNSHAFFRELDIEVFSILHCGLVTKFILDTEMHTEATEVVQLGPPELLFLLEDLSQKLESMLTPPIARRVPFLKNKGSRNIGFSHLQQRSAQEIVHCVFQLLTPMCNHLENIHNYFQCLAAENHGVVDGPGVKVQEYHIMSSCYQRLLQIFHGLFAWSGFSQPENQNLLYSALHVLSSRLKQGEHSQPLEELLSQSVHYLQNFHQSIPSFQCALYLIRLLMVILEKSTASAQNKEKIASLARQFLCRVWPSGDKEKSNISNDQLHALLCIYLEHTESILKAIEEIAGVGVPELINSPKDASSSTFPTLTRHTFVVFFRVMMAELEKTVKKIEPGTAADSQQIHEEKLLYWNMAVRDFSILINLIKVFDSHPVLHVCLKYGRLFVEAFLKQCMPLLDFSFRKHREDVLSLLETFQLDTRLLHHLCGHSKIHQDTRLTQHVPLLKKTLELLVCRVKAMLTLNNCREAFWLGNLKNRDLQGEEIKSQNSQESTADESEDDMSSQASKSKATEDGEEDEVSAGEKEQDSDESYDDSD
UniProt Q6P3S6: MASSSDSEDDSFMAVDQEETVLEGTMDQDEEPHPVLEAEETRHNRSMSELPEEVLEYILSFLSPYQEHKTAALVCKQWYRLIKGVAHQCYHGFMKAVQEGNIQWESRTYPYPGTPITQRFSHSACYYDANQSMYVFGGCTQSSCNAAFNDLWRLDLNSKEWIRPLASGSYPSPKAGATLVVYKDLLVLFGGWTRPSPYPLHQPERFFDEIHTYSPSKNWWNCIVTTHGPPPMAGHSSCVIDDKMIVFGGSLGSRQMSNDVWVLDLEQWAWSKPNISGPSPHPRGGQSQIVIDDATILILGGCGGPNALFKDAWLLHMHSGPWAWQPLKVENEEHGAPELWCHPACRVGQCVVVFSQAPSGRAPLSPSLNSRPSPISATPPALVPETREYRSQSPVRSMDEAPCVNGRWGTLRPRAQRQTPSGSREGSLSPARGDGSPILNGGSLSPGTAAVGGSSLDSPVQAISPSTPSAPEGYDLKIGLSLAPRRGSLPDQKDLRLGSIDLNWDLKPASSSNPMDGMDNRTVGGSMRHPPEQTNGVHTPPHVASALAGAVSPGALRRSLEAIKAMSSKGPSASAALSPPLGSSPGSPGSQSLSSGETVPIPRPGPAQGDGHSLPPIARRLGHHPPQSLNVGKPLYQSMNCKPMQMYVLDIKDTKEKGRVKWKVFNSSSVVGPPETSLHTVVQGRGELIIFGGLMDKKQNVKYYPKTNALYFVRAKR
UniProt Q9Y680: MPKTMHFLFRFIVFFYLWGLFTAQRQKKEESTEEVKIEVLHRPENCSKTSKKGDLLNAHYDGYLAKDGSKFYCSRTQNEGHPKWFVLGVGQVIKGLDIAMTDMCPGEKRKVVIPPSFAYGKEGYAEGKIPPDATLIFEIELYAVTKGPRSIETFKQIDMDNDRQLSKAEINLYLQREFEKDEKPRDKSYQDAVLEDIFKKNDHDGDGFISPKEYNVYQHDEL
UniProt Q9UK99: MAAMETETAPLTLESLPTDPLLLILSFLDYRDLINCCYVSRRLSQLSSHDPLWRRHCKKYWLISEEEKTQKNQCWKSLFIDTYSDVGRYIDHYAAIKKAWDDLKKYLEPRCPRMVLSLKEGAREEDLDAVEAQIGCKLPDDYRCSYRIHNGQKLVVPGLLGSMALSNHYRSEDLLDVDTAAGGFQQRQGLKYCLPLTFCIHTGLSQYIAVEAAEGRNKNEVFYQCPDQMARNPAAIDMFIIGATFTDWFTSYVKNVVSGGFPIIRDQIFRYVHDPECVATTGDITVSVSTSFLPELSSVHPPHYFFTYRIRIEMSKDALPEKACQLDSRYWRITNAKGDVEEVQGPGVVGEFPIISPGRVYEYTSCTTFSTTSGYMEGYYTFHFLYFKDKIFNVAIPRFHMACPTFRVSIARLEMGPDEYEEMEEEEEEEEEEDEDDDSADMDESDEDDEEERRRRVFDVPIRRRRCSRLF
UniProt Q9H4H8: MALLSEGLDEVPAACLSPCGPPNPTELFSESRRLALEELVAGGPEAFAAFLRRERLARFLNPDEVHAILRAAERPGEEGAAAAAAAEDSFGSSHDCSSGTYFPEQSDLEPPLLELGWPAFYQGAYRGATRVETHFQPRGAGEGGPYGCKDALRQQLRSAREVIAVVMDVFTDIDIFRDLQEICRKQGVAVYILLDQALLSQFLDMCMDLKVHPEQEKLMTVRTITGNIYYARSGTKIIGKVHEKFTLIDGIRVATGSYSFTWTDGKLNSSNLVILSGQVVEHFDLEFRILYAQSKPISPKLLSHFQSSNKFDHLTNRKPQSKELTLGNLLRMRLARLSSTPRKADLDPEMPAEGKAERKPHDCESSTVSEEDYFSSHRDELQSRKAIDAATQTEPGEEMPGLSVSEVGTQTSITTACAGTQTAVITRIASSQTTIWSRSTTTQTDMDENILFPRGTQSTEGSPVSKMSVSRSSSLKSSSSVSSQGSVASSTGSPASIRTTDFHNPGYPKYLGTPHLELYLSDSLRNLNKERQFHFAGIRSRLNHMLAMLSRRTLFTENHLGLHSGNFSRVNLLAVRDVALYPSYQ
UniProt Q00688: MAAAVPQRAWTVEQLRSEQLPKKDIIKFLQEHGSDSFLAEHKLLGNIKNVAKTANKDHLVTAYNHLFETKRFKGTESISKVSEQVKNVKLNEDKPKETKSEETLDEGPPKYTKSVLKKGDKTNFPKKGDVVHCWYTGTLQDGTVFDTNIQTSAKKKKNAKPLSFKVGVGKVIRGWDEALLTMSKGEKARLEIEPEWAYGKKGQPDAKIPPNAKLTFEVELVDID
UniProt Q14320: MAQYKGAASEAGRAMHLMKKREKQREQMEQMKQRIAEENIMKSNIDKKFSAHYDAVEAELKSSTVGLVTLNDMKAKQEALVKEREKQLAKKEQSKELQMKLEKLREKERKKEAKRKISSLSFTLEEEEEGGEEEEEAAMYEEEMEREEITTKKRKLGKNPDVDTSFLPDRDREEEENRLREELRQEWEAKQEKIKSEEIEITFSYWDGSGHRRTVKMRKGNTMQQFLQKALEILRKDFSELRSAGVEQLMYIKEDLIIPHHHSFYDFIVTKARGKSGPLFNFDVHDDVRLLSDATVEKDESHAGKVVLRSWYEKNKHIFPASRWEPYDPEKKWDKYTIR
UniProt P14324: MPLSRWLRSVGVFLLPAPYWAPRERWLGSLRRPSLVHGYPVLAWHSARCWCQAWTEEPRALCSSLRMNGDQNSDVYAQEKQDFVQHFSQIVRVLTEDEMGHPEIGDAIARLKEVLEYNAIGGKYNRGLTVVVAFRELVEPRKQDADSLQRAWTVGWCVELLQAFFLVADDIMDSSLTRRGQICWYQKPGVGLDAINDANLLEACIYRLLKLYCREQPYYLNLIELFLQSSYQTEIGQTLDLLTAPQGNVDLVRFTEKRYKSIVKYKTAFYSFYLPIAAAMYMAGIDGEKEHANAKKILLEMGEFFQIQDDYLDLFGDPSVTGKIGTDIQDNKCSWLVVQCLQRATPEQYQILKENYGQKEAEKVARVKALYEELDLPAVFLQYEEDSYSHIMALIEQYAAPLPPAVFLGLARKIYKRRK
UniProt Q9Y3I1: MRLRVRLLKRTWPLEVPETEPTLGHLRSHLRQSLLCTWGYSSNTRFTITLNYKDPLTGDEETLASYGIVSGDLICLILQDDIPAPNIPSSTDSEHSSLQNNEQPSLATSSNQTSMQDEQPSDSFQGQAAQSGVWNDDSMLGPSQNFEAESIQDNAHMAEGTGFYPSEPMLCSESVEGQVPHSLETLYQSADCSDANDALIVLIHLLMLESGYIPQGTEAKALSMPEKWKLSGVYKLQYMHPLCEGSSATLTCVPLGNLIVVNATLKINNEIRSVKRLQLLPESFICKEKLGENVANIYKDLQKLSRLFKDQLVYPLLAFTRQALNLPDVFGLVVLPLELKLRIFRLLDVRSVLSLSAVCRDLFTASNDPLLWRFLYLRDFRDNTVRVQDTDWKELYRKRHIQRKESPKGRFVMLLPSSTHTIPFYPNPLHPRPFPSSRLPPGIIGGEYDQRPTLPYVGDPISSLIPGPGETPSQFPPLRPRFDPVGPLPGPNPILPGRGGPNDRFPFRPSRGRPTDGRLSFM
UniProt P22830: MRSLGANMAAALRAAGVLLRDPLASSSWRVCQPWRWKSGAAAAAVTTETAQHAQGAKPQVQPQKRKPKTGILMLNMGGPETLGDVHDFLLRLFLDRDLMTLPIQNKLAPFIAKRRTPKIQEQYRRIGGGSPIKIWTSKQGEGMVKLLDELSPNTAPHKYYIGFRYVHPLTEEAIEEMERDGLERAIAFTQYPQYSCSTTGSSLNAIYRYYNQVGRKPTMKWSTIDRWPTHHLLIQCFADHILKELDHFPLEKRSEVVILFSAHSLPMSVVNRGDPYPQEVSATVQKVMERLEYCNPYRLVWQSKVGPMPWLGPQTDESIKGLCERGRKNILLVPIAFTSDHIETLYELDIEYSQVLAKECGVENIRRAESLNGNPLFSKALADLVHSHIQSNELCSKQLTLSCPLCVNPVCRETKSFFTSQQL
UniProt O43427: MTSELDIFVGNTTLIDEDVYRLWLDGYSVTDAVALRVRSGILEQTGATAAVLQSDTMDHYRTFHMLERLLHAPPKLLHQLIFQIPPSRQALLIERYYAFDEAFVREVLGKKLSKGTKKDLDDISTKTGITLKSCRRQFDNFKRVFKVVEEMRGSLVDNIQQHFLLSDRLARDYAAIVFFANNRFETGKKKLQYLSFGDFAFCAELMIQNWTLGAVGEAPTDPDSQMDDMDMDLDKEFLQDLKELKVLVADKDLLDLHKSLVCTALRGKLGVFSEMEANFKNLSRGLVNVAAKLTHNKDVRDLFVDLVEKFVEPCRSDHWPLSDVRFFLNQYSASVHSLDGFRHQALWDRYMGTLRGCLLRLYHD
UniProt Q9NRD1: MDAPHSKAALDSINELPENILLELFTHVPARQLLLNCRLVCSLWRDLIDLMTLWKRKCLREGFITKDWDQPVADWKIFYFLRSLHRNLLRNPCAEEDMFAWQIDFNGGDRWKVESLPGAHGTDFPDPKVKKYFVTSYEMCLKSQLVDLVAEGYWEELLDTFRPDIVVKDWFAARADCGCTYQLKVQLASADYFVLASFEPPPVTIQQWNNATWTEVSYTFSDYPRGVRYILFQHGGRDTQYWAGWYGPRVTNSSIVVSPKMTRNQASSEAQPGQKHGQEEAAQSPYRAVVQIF
UniProt Q92913: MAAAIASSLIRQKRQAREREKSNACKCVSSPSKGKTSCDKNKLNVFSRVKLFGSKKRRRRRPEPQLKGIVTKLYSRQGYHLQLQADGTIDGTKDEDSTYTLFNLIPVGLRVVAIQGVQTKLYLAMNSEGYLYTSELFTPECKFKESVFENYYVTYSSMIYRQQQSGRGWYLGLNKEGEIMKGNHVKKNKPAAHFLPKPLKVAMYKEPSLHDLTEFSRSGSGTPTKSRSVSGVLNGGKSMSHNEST
UniProt Q9Y3D6: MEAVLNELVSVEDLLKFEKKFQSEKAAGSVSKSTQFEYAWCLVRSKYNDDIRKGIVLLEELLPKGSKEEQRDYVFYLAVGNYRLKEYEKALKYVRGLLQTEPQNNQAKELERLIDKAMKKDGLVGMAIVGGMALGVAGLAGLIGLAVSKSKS

[2] = compound: NC(=O)c1cnc(N[C@@H]2CCCC[C@@H]2N)nc1Nc1cccc(-n2nccn2)c1
How it was run: as §1

[3] = compound: NC1(c2ccc(-c3nc4ccn5c(=O)[nH]nc5c4cc3-c3ccccc3)cc2)CCC1
How it was run: as §1

[4] = compound: NCC(=O)Nc1ccc(-n2nc(C(F)(F)F)cc2-c2ccc3c(ccc4ccccc43)c2)cc1
How it was run: as §1

entinostat = compound: Nc1ccccc1NC(=O)c1ccc(CNC(=O)OCc2cccnc2)cc1 [entinostat]
How it was run: as §1

vorinostat = compound: O=C(CCCCCCC(=O)Nc1ccccc1)NO [vorinostat]
How it was run: as §1

citarinostat = compound: O=C(CCCCCCNC(=O)c1cnc(N(c2ccccc2)c2ccccc2Cl)nc1)NO [citarinostat]
How it was run: as §1

silmitasertib = compound: O=C(O)c1ccc2c(c1)nc(Nc1cccc(Cl)c1)c1ccncc12 [silmitasertib]
How it was run: as §1

[5] = compound: O=C1NC(=O)C(c2cnc3ccccn23)=C1c1cn2c3c(cc(F)cc13)CN(C(=O)N1CCCCC1)CC2
How it was run: as §1

[6] = compound: c1cc(OCCN2CCCCC2)cc(-c2n[nH]c3ccc(-c4nnc[nH]4)cc23)c1
How it was run: as §1

entospletinib = compound: c1cn2cc(-c3ccc4cn[nH]c4c3)nc(Nc3ccc(N4CCOCC4)cc3)c2n1 [entospletinib]
How it was run: as §1

Measured: log2 fold change

FANCD2 isoform 1 (UniProt Q9BXW9)
inactive: [1] 0.087 | [2] -0.189 | [3] -0.304 | [4] -0.034 | entinostat 0.022 | vorinostat 0.187 | citarinostat 0.11 | silmitasertib -0.109 | [5] -0.034 | [6] -0.039

FBXO42 (UniProt Q6P3S6)
inactive: [1] -0.048 | [2] -0.087 | [3] -0.176 | [4] 0.061 | entinostat -0.028 | vorinostat -0.03 | citarinostat -0.001 | silmitasertib 0.006 | [5] 0.013 | [6] -0.026

FKBP7 (UniProt Q9Y680)
inactive: [1] -0.034 | [2] -0.017 | [3] 0.005 | [4] -0.037 | entinostat -0.029 | vorinostat -0.017 | citarinostat -0.02 | silmitasertib 0.079 | [5] 0.008 | [6] -0.097

FBXO3 (UniProt Q9UK99)
inactive: [1] -0.034 | [2] -0.013 | [3] -0.202 | [4] -0.013 | entinostat -0.039 | vorinostat 0.011 | citarinostat 0.016 | silmitasertib -0.003 | [5] 0.001 | [6] -0.12

FAM83D (UniProt Q9H4H8)
inactive: [1] -0.031 | [2] -0.073 | [3] -0.072 | [4] 0.075 | entinostat 0.008 | vorinostat 0.066 | citarinostat 0.115 | silmitasertib 0.048 | [5] -0.058 | [6] 0.059

FHOD1 (UniProt Q9Y613)
inactive: [1] -0.075 | [2] -0.042 | [3] 0.179 | [4] 0.051 | entinostat -0.103 | vorinostat 0.034 | citarinostat -0.073 | silmitasertib 0.177 | [5] 0.23 | [6] -0.085

FKBP3 (UniProt Q00688)
inactive: [1] 0.042 | [2] 0.019 | [3] 0.02 | [4] 0.037 | entinostat 0.016 | vorinostat 0.007 | citarinostat 0.009 | silmitasertib -0.034 | [5] -0.02 | [6] 0.054

FAM50A (UniProt Q14320)
inactive: [1] 0.003 | [2] -0.008 | [3] -0.087 | [4] -0.082 | entinostat 0.045 | vorinostat 0.011 | citarinostat 0.095 | silmitasertib 0.071 | [5] -0.001 | [6] -0.019

FDPS (UniProt P14324)
inactive: [1] 0.009 | [2] -0.136 | [3] -0.48 | [4] -0.14 | entinostat 0.001 | vorinostat 0.215 | citarinostat 0.142 | silmitasertib -0.108 | [5] -0.026 | [6] -0.069

FBXO7 (UniProt Q9Y3I1)
inactive: [1] 0.061 | [2] -0.052 | [3] -0.077 | [4] -0.044 | entinostat 0.038 | vorinostat 0.097 | citarinostat 0.013 | silmitasertib 0.031 | [5] -0.026 | [6] -0.052

Quoted at random: two records from the list.
FBXO42 (UniProt Q6P3S6)
inactive: [1] -0.048 | [2] -0.087 | [3] -0.176 | [4] 0.061 | entinostat -0.028 | vorinostat -0.03 | citarinostat -0.001 | silmitasertib 0.006 | [5] 0.013 | [6] -0.026

FHOD1 (UniProt Q9Y613)
inactive: [1] -0.075 | [2] -0.042 | [3] 0.179 | [4] 0.051 | entinostat -0.103 | vorinostat 0.034 | citarinostat -0.073 | silmitasertib 0.177 | [5] 0.23 | [6] -0.085

Later entries.

FECH isoform 2 (UniProt P22830)
inactive: [1] -0.031 | [2] 0.171 | [3] 0.288 | [4] 0.021 | entinostat -0.01 | vorinostat -0.228 | citarinostat -0.031 | silmitasertib -0.035 | [5] 0 | [6] 0.38

FIBP (UniProt O43427)
inactive: [1] -0.018 | [2] 0.023 | [3] 0.011 | [4] -0.117 | entinostat -0.005 | vorinostat -0.067 | citarinostat 0.297 | silmitasertib -0.05 | [5] -0.031 | [6] -0.106

FBXO6 (UniProt Q9NRD1)
inactive: [1] -0.009 | [2] 0.034 | [4] 0.028 | entinostat 0.013 | vorinostat 0.074 | citarinostat 0.075 | silmitasertib 0.012 | [5] -0.017 | [6] 0.026
active: [3] 0.366

FGF13 isoform 3 (UniProt Q92913)
inactive: [1] 0.015 | [2] -0.049 | [3] -0.11 | [4] -0.041 | entinostat -0.019 | vorinostat -0.015 | citarinostat -0.08 | silmitasertib 0.019 | [5] 0.007 | [6] 0.108 | entospletinib 0.001

FIS1 (UniProt Q9Y3D6)
inactive: [1] -0.013 | [2] 0.075 | [3] 0.002 | [4] 0.133 | entinostat -0.004 | vorinostat -0.027 | citarinostat 0.051 | silmitasertib -0.017 | [5] -0.03 | [6] -0.006

Reference: the supplement of paper PMC10849652
